Binding signal data for one sequence are collected here from paper PMC5996148.

This is one part of the list.

Some test systems named below: C19orf12 (human); C19orf39 (human); C1QC (human); C1orf109 (human); C1orf119 (human); C1orf162 (human); C1orf2 (human); C1orf213 (human); C1orf38 (human); C1orf51 (human).
Test in all cases: protein microarray (ProtoArray v5.0), streptavidin-Alexa Fluor 647
Common to all, as to settings: 3'-biotin; 20 mM Tris (pH 7.5), 5 mM MgCl2, 100 mM KCl, 0.1% Tween-20, A/T-rich and random oligonucleotide blockers; temperature not stated; high values mean tight binding

As to “GGGAGGCTGAGGCAGG [G4-1 biotinylated (PQS2)]”, the binding signal in the experiment with C19orf12 (human) was -0.355 z-score; with C19orf39 (human), -0.318 z-score; with C1QC (human), -0.306 z-score; in the experiment with C1orf109 (human), -0.318 z-score; in the experiment with C1orf119 (human), -0.324 z-score; in the experiment on C1orf162 (human), -0.334 z-score. Moreover, the binding signal in the experiment on C1orf2 (human) was -0.304 z-score; in the experiment on C1orf213 (human) it was -0.306 z-score; in the experiment with C1orf38 (human), -0.328 z-score; with C1orf51 (human), -0.329 z-score.
